The record followed here is PubChem BioAssay AID445 (National Center for Advancing Translational Sciences (NCATS), 2006).

The other results are listed elsewhere or left out. The main result of the screen is listed elsewhere. These columns were measured beside it and carry no call. Compounds called inactive in the main read-out are mostly missing here. Potencies come from curve fits of mixed quality, noted in brackets.

The assay in a line: IkB Signaling. The settings on record: ABC-DLBCL IkBa-CBG/CBR dual luciferase ratio (green luciferase fused to IkBa over red control in OCI-Ly3 lymphoma cells), 4 h. An outline of the steps:
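In this assay, an IκBα–CBG68 fusion accumulates when IKK-driven degradation is blocked; native CBR normalizes for cell number. OCI-Ly3 cells were treated 4 h with compound and doxycycline, then green and red light read after Chroma-Glo addition.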

Setting [1] is: measured here: control luc red channel unless noted.

As for `COc1ccc(-c2ccc(NS(=O)(=O)c3cccc(Cl)c3)cc2)nn1`, under setting [1], the AC50 was 15.8 µM [falling, partial curve]. On the same count and under the same terms, to `O=C(c1cn(CCOc2ccccc2F)c2ccccc12)C1CCCCC1` belongs 12.6 µM [falling, partial curve]. Same read-out and setting: to `COc1ccc(NC(=O)CSc2oc(-c3cccs3)nc2S(=O)(=O)c2ccc(Br)cc2)c(OC)c1` belongs 3.16 µM [falling, single point]; to `COc1ccc(NC(=O)c2ccccc2NC(=O)C2CCCO2)cc1` (stereo unspecified), 5.01 µM [falling, partial curve]; to `Cc1ccc(Nc2sc(C(=O)c3ccccc3)c(N)c2C(=O)NC(C)C)cc1`, 31.6 µM [falling, single point].

For the compound `Cc1cccc(Cn2cc(C(=O)c3ccccc3)c(=O)c3cc4c(cc32)OCO4)c1`, under setting [1], the AC50 was 25.1 µM [falling, single point]. On the same count and under the same terms, to `CCc1nonc1NC(=O)c1oc2cc(C)c(Cl)cc2c1C` belongs 2 µM [rising, partial curve].

For the compound `COc1ccccc1-c1cc(C(=O)NCc2ccc(F)cc2)no1`, the AC50 under setting [1] was 12.6 µM [falling, partial curve]. Regarding `COc1ccccc1N1CCN(C(=O)c2sc3nc4n(c(=O)c3c2C)CCC4)CC1`, the concentration at half-maximal activity (AC50) under setting [1] is 39.8 µM [falling, single point].

As to `CCOc1ccc(C(=O)c2cn(Cc3ccccc3OC)c3cc4c(cc3c2=O)OCCO4)cc1`, the AC50 under setting [1] is 31.6 µM [falling, single point].

Turning to `CCn1c(=O)n(CC(=O)NC2CCCC(C)C2C)c(=O)c2ccccc21` (stereo unspecified), the AC50 under setting [1] was 3.16 µM [falling, partial curve]. Still for that read-out and setting: to `CCC(=O)N1CCc2cc(S(=O)(=O)CCC(=O)Nc3ccc(Cl)c(C(F)(F)F)c3)ccc21` belongs 12.6 µM [falling, partial curve]; to `COc1cc(-c2cc(C(=O)N3CCN(c4ccccn4)CC3)c3ccccc3n2)cc(OC)c1OC`, 10 µM [falling, partial curve]. With `O=C(NCC(c1ccccc1)c1ccccc1)c1nn(-c2ccccc2Cl)nc1CO`, the AC50 under setting [1] is 15.8 µM [falling, partial curve]. Same read-out and setting: to `CCc1ccc(S(=O)(=O)Nc2ccc(-c3ccc(N4CCCCCC4)nn3)cc2)cc1` belongs 3.16 µM [falling, full curve]; to `CCCCOc1ccc(S(=O)(=O)N2CCN(c3ccccc3OCC)CC2)cc1`, 3.98 µM [falling, partial curve]. Still for that read-out and setting: to `COc1ccc(Cl)cc1NC(=O)CN(C)S(=O)(=O)c1ccc(Br)s1` belongs 12.6 µM [falling, partial curve]. As to `Cc1cc2c(c3oc(=O)c4ccccc4c13)CN(Cc1ccc(F)cc1)CO2`, the AC50 under setting [1] was 39.8 µM [falling, single point]. Same read-out and setting: to `O=C(Nc1cccc(Cl)c1)Nc1ccccc1OCc1cc(=O)n2ccccc2n1` belongs 0.316 µM [falling, full curve, poor fit]; to `COc1cccc(CNC(=O)c2cc(-c3cccc(OC)c3)n[nH]2)c1`, 6.31 µM [falling, partial curve]; to `O=S(=O)(c1ccc2[nH]c3c(c2c1)CCCCC3)N1CCN(c2ccccc2)CC1`, 12.6 µM [falling, partial curve]. `CCOC(=O)NC(NC(=O)OCC)C(=O)c1ccc(F)cc1`: under setting [1], the AC50 was 1.26 µM [falling, full curve]. For the compound `CC(=O)C1=C(c2ccc(Cl)c(Cl)c2)N(C(C)=O)n2c(C)nnc2S1`, the AC50 is, setting by setting: (measured here: IkB-luc green channel) 31.6 µM [rising, single point]; (measured here: control luc red channel) 3.98 µM [falling, partial curve]. On to `CCCc1nnc2n1N=C(c1ccc(-c3cc(Cl)ccc3Cl)o1)CS2`, for which, under setting [1], the concentration at half-maximal activity (AC50) was 15.8 µM [falling, partial curve].

For `Cc1cccc(C)c1NC(=O)c1oc2c(c1C)-c1nn(Cc3ccccc3)cc1CC2`, under setting [1], the AC50 was 0.0316 µM [falling, full curve, poor fit].

Take `Oc1ccc(-c2nnc(-c3ccc(O)cc3)nn2)cc1`: the AC50 under setting [1] was 0.158 µM [falling, full curve].

In the case of `O=C(Cn1ncc2c3ccccc3n(Cc3ccccc3F)c2c1=O)NCCc1ccc(Cl)cc1`, the AC50 under setting [1] is 3.98 µM [falling, full curve, poor fit].

For `COc1cccc(CNC(=O)CSc2c3c(nc4ccc(Cl)cc24)CCCC3)c1OC`, under setting [1], the AC50 was 12.6 µM [falling, partial curve]. On the same count and under the same terms, to `Cc1ccccc1Nc1nnc(-c2ccc(C)c(S(=O)(=O)N3CCOCC3)c2)c2ccccc12` belongs 39.8 µM [falling, single point]. Turning to `Cc1cccc(N2CCN(C(=O)C3CCN(S(=O)(=O)c4cccs4)CC3)CC2)c1C`, the concentration at half-maximal activity (AC50) under setting [1] is 3.98 µM [falling, partial curve]. Still for that read-out and setting: to `COc1ccc(OC)c(NC(=O)Cn2cnc3c(oc4ccccc43)c2=O)c1` belongs 15.8 µM [falling, partial curve]; to `C1COC(NC(C2CC2)C2CC2)=N1`, 39.8 µM [falling, single point]. Take `Cc1ccc(CNC(=O)CN(c2ccc(Cl)cc2Cl)S(=O)(=O)c2ccccc2)cc1`: the AC50 under setting [1] is 12.6 µM [falling, partial curve]. Take `Cc1ccc(-n2nc3c(N4CCCC(C(=O)NCCc5ccccc5)C4)nnc(C)c3c2C)cc1` (stereo unspecified): under setting [1], the AC50 is 20 µM [falling, partial curve]. Same read-out and setting: to `Cc1ccc(CCNC(=O)Cn2c(-c3cccs3)cc3cc(F)ccc32)cc1` belongs 20 µM [falling, single point]; to `CCc1cccc2sc(N3CCN(C(=O)c4cc5ccccc5cc4OC)CC3)nc12`, 7.94 µM [falling, single point]; to `N#CC1=C(N)Oc2cc3c(cc2C1c1ccc(Cl)cc1)OCO3` (stereo unspecified), 25.1 µM [falling, partial curve]. Same read-out and setting: to `COc1ccc(CC(=O)NCc2ccc3c(c2)CCN3C(=O)c2ccc(C)cc2)cc1OC` belongs 12.6 µM [falling, single point]; to `COc1ccc(CNC(=O)c2ccc(-c3nc(CSc4ccccc4)c(C)o3)cc2)c(OC)c1`, 20 µM [falling, partial curve]. Regarding `Cc1ccc(-c2nc(C)c(CCNC(=O)C(=O)Nc3ccc4c(c3)OCO4)s2)cc1`, the AC50 under setting [1] is 10 µM [rising, partial curve, poor fit].
